For assay [1], the target named is T1, GFP-PILS2 (PIN-LIKES 2, GFP-tagged) (A. thaliana) (UniProt Q9C999).
T1 sequence: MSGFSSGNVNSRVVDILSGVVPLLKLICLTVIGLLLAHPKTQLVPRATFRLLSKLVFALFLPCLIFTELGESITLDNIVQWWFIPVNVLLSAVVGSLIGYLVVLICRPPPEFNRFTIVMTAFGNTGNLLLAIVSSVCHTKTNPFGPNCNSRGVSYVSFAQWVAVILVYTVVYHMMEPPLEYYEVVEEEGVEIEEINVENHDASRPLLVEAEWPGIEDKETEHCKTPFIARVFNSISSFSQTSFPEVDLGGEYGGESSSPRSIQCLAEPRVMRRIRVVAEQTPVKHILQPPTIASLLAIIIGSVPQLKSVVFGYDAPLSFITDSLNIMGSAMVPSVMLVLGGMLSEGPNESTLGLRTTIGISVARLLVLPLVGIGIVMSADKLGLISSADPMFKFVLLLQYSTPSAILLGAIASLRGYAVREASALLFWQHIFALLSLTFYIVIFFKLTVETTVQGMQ
As to the kind of experiment: affinity purification with mass spectrometry; anti-GFP beads on extracts of A. thaliana lines expressing GFP-PILS2, GFP-PILS3 or PILS6-GFP as baits; extraction buffer 25 mM Tris pH 7.5, 10 mM MgCl2, 15 mM EGTA, 75 mM NaCl, 1 mM DTT, 0.1% Tween 20; screen performed twice.

Chains of the proteins cited; added tags and fusions are not shown. Lines headed by an entry give the natural chain unless they say otherwise; changes in a name come on top.
UniProt F4JX49: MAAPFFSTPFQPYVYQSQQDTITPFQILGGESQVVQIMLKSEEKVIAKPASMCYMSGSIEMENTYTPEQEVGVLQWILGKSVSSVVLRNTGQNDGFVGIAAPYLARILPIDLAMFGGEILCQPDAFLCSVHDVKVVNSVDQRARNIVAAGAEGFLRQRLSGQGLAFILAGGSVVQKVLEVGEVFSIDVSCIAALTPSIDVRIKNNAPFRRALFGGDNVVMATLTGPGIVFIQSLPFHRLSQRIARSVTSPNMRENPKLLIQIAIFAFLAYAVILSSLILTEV

Assay [2] deals with T2, GFP-PILS3 (PIN-LIKES 3, GFP-tagged) (A. thaliana) (UniProt Q9C9K5).
T2 sequence: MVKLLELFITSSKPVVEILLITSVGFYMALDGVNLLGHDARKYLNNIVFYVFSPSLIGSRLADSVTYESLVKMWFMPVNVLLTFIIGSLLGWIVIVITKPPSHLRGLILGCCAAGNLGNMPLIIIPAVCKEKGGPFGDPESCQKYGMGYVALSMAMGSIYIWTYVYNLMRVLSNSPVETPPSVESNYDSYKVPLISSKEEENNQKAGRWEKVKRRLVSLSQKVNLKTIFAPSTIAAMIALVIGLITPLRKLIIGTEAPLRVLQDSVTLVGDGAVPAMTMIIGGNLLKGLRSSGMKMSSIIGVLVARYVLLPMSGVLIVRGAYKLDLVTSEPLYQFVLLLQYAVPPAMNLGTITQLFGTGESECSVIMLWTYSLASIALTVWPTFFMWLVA
The description is as above.

Assay [3] deals with T3, PILS6-GFP (PIN-LIKES 6, GFP-tagged) (A. thaliana) (UniProt Q9LZN2).
T3 sequence: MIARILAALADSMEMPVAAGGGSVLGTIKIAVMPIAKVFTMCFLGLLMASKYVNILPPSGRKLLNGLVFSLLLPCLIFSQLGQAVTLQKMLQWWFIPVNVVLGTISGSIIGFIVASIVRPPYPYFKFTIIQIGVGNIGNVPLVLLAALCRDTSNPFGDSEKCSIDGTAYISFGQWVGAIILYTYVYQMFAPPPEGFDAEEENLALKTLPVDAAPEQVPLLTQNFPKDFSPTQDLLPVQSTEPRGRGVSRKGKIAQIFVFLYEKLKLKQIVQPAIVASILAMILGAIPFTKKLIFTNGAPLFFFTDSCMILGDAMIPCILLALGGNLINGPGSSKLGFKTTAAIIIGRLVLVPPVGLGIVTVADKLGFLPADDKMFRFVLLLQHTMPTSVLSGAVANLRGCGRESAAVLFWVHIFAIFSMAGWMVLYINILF
The assay is described as above.

Assay [4] concerns the target HRD1 (endogenous HRD1A/B, as recognised by the HRD1 antibody) (A. thaliana (endogenous in A. thaliana)). As to the kind of experiment: affinity purification with mass spectrometry; co-IP with anti-HRD1 antibodies on wild-type Arabidopsis lysates, label-free quantitative mass spectrometry; mock IPs (beads without antibody) as background.

For six molecules, binding results are on record in PMC12448072.

These are yes or no findings as the source states them, for the method shown. In cells and extracts the contact can be indirect. These calls come from enrichment with a bait or labelling near it, and not all partners need be listed. For part of these data: Tags and fused reporters may be left off the sequences shown.

Regarding PAWH2 (from UniProt F4JX49), the binding result in assay [1], in assay [2] and in assay [3] was “binds” throughout.
With “Protein Associated with HRD1-1 (PAWH1) (A. thaliana (endogenous in A. thaliana))”, the binding entry in assay [1], in assay [2] and in assay [3] was “binds” throughout.

B1: HMG-CoA Reductase Degradation 1A (HRD1A) (protein, UniProt Q9LW77 1-492)
chain: MIRLRTYAGLSFMATLAVIYHAFSSRGQFYPATVYLSTSKISLVLLLNMCLVLMLSLWHLVKFVFLGSLREAEVERLNEQAWRELMEILFAITIFRQDFSSGFLPLVVTLLLIKALHWLAQKRVEYIETTPSVSKLSHFRIVSFMGFLLLVDSLFMYSSIRHLIQSRQASVSLFFSFEYMILATTTVAIFVKYVFYVTDMLMDGQWEKKPVYTFYLELIRDLLHLSMYICFFFVIFMNYGVPLHLLRELYETFRNFQIRVSDYLRYRKITSNMNDRFPDATPEELTASDATCIICREEMTNAKKLICGHLFHVHCLRSWLERQQTCPTCRALVVPPENATSAAPGQRELHQGSQQGTSSSGNQGSEISSSAGVSNNSLSRHHARLQAAASAASVYGKSMVYPSANTVAWSSGVPGTEQVSTEPDQTLPQHNLPVENSHAYANMSETKLEEMRKSLETHLEILRNRLHFLETRKPESAGEPENKGKSVADAAE
As to B1, the binding entry in assay [1], in assay [2] and in assay [3] was “binds” throughout.

B2: DER2.1 (protein, UniProt Q8VZ96 1-244)
chain: MAQAVEEWYKQMPIITRSYLTAAVVTTVGCSLEIISPYNLYLNPTLVVKQYQFWRLVTNFLYFRKMDLDFLFHMFFLARYCKLLEENSFRGKTADFLYMLLFGATVLTGIVLIGGMIPYLSVSFSKIIFLSNSLTFMMVYVWSKQNPYIHMSFLGLFTFTAAYLPWVLLGFSILVGASAWGDFLGMIAGHAYYFLAFVYPRMTDRRPLKTPSFLKALFADEPVVIARPEDVRFAHAPFDEIHQD
For the molecule B2, in assay [4], the binding result is “binds”.

B3: DER2.2 (protein, UniProt Q9ZS88 1-244)
chain: MAQAVEEWYKQMPIITRSYLTAAVITTVGCSLDIISPYNLYLNPTLVVKQYQYWRLVTNFLYFRKMDLDFMFHMFFLARYCKLLEENSFRGKTADFLYMLLFGASVLTGIVLIGGMIPYLSASFAKIIFLSNSLTFMMVYVWSKQNPYIHMSFLGLFTFTAAYLPWVLLGFSILVGASAWVDLLGMIAGHAYYFLAEVYPRMTNRRPLKTPSFLKALFADEPVVVARPEDVRFAAAPFDEIHQD
Turning to B3, the binding entry in assay [4] is recorded as “binds”.

B4: native PILS5 (protein, UniProt Q9SHL8 1-396)
chain: MGFWSLLEVASMPVIQVLFMSLVGAFMASDRCKLFPVEARNSMNKVVFVLFAPALMFANLAQTVTLEDIISWWFMPVNMGLTFLIGGLLGWLVVKILKPPPYLEGLIVATCSAGNMGNLPIILVPAICDEDKSPFGNRSVCRTVGLSYASFSMALGGFYIWTYTFRLIKGSAMKVQAIEESEKIAIKSSNSDLEADHKTHLLGAPEDKENKVVKEKTGFWRKGVDFLHEILEELLAPPTLGAIIGFIFGAVRWLRNLIIGDDAPLRIVQSTAKLLGDGTIPCMTIILGGNLIQGLRSSAVKPMVVLGIVCVRYIAMPIIGIGIVLTAANLGFLPADPLFQYVLMLQFTLPPAMNIGTMTQLYNVAQDECSVLMLWTYLVAILALTVWSTIFLHLLV
As for B4, the binding result in assay [4] is listed as “binds”.
